PubChem BioAssay AID743121, NCATS – 2013

Screen: 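Partners whose loss is lethal together with topoisomerase I blockade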 (primary screen)
System: MDA-MB-231 cells, a human breast cancer line
Reagents: single siRNA against human genes, 20 nM siRNA (0.8 pmol per well)
Duration: 120 h (drug added 48 h after transfection, read 72 h later)
Treatment: camptothecin 20 nM (about EC30) for 72 h; vehicle 0.1% DMSO in parallel plates
Measurement: 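CellTiter-Glo ATP signal, scaled to control siRNA as percent viability; sensitisation given as log2 of untreated divided by camptothecin-treated viability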
Direction: log2 vehicle/camptothecin viability: higher = stronger sensitisation to camptothecin; viability with camptothecin and viability without drug: higher = more viable cells
Active means: 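Active genes have an RSA gene-level p-value below 0.001, computed from the ratios of their separate siRNAs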
The deposit covers about 26,000 reagents; shown is a part drawn at random. 167 of all reagents (0.63%) were called active. 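Calls are per gene from RSA p-values that are not deposited; an individual active-marked siRNA can sensitise only weakly.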 Reagents against one gene are numbered here. Reagent sequences are not shown.

gene symbol,reagent no.,log2 vehicle/camptothecin viability,viability with camptothecin (% of control),viability without drug (% of control),outcome
DNPEP (GeneID 23549),1,-0.489,69.3,49.4,inactive
DNPEP (GeneID 23549),2,-0.105,46.1,42.8,inactive
DNPEP (GeneID 23549),3,-0.756,63.2,37.4,inactive
GPR61 (GeneID 83873),1,-0.178,83.3,73.6,inactive
GPR61 (GeneID 83873),2,0.212,5.91,6.84,inactive
GPR61 (GeneID 83873),3,-0.00223,77.4,77.3,inactive
GPR61 (GeneID 83873),4,0.418,41.2,55.1,inactive
ST13 (GeneID 6767),1,0.232,67.5,79.3,inactive
ST13 (GeneID 6767),2,-0.253,95.5,80.1,inactive
ST13 (GeneID 6767),3,-0.133,87.3,79.6,inactive
ST13 (GeneID 6767),4,-0.341,105,82.5,inactive
CYLD (GeneID 1540),1,-0.0229,97,95.5,inactive
CYLD (GeneID 1540),2,0.0855,94.9,101,inactive
CYLD (GeneID 1540),3,0.0252,89,90.6,inactive
CYLD (GeneID 1540),4,-0.911,34.3,18.3,inactive
RGS14 (GeneID 10636),1,-0.42,89.7,67.1,inactive
RGS14 (GeneID 10636),2,0.0866,51.1,54.3,inactive
RGS14 (GeneID 10636),3,-0.224,61.9,53,inactive
PRCP (GeneID 5547),1,0.00347,77.8,78,inactive
PRCP (GeneID 5547),2,-0.201,49.3,42.9,inactive
PRCP (GeneID 5547),3,-0.0821,84.8,80.1,inactive
PRCP (GeneID 5547),4,-0.124,65.4,60.1,inactive
HTRA1 (GeneID 5654),1,-0.501,130,92.1,inactive
HTRA1 (GeneID 5654),2,-0.169,107,95,inactive
HTRA1 (GeneID 5654),3,0.21,27.9,32.3,inactive
HTRA1 (GeneID 5654),4,-0.134,57.8,52.6,inactive
CYP2B7P (GeneID 1556),1,-0.631,107,68.8,inactive
CYP2B7P (GeneID 1556),2,-0.119,87.5,80.6,inactive
CYP2B7P (GeneID 1556),3,-0.296,84.1,68.5,inactive
CYP2B7P (GeneID 1556),4,-0.0519,105,101,inactive
MAP3K21 (GeneID 84451),1,-0.327,62.1,49.5,inactive
MAP3K21 (GeneID 84451),2,-0.332,99.7,79.2,inactive
MAP3K21 (GeneID 84451),3,-0.111,103,95.5,inactive
MAP3K21 (GeneID 84451),4,-0.114,95.2,87.9,inactive
NUP98 (GeneID 4928),1,-0.636,48.4,31.2,inactive
NUP98 (GeneID 4928),2,-0.48,52.9,37.9,inactive
NUP98 (GeneID 4928),3,-0.265,26.9,22.4,inactive
NUP98 (GeneID 4928),4,-0.387,33.9,26,inactive

6 entries from above in another layout.
| gene symbol | reagent no. | log2 vehicle/camptothecin viability | viability with camptothecin (% of control) | viability without drug (% of control) | outcome |
| --- | --- | --- | --- | --- | --- |
| PRCP (GeneID 5547) | 2 | -0.201 | 49.3 | 42.9 | inactive |
| PRCP (GeneID 5547) | 3 | -0.0821 | 84.8 | 80.1 | inactive |
| PRCP (GeneID 5547) | 4 | -0.124 | 65.4 | 60.1 | inactive |
| HTRA1 (GeneID 5654) | 1 | -0.501 | 130 | 92.1 | inactive |
| HTRA1 (GeneID 5654) | 2 | -0.169 | 107 | 95 | inactive |
| HTRA1 (GeneID 5654) | 3 | 0.21 | 27.9 | 32.3 | inactive |

Additional records:
gene symbol,reagent no.,log2 vehicle/camptothecin viability,viability with camptothecin (% of control),viability without drug (% of control),outcome
MAPKAPK3 (GeneID 7867),1,-0.493,63.3,45,inactive
MAPKAPK3 (GeneID 7867),2,0.0367,82.2,84.3,inactive
MAPKAPK3 (GeneID 7867),3,-0.0865,96,90.4,inactive
MAPKAPK3 (GeneID 7867),4,-0.519,15.7,10.9,inactive
EIF4A3 (GeneID 9775),1,-0.505,5.65,3.98,inactive
EIF4A3 (GeneID 9775),2,0.124,3.27,3.56,inactive
EIF4A3 (GeneID 9775),3,-0.257,2.98,2.49,inactive
EIF4A3 (GeneID 9775),4,-0.282,4.67,3.84,inactive
LRP5L (GeneID 91355),1,-0.361,73,56.9,inactive
LRP5L (GeneID 91355),2,-0.579,37,24.7,inactive
LRP5L (GeneID 91355),3,-0.318,46,36.9,inactive
GFUS (GeneID 7264),1,-0.185,92,81,inactive
GFUS (GeneID 7264),2,-0.731,30.4,18.3,inactive
GFUS (GeneID 7264),3,-0.332,96.4,76.6,inactive
GFUS (GeneID 7264),4,-0.589,91.1,60.5,inactive
THBS3 (GeneID 7059),1,0.927,39.9,75.9,inactive
THBS3 (GeneID 7059),2,0.237,50.3,59.3,inactive
THBS3 (GeneID 7059),3,-0.519,55,38.4,inactive
THBS3 (GeneID 7059),4,-0.294,92.6,75.5,inactive
OSBP (GeneID 5007),1,-0.591,79.9,53,inactive
OSBP (GeneID 5007),2,-0.429,100,74.4,inactive
OSBP (GeneID 5007),3,0.0788,109,115,inactive
OSBP (GeneID 5007),4,0.0626,99.5,104,inactive
SOCS1 (GeneID 8651),1,-0.0738,109,104,inactive
SOCS1 (GeneID 8651),2,-0.333,82.4,65.4,inactive
SOCS1 (GeneID 8651),3,-0.0727,68.6,65.2,inactive
TMPRSS12 (GeneID 283471),1,-0.507,86.9,61.1,inactive
TMPRSS12 (GeneID 283471),2,-0.608,118,77.3,inactive
TMPRSS12 (GeneID 283471),3,0.0436,97.7,101,inactive
TMPRSS12 (GeneID 283471),4,0.00155,67.4,67.5,inactive
PTPRH (GeneID 5794),1,0.223,71.2,83.1,inactive
PTPRH (GeneID 5794),2,-0.426,142,106,inactive
PTPRH (GeneID 5794),3,-0.174,85.9,76.1,inactive
PTPRH (GeneID 5794),4,-0.479,85.3,61.2,inactive
EDN2 (GeneID 1907),1,-0.252,105,88,inactive
EDN2 (GeneID 1907),2,-0.268,71.2,59.1,inactive
EDN2 (GeneID 1907),3,-0.0891,44.4,41.8,inactive
EDN2 (GeneID 1907),4,0.139,85.7,94.4,inactive
NCOA5 (GeneID 57727),1,-0.129,106,96.8,inactive
NCOA5 (GeneID 57727),2,-0.105,112,104,inactive
NCOA5 (GeneID 57727),3,-0.0522,103,99.4,inactive
PPM1E (GeneID 22843),1,0.14,7.37,8.12,inactive
PPM1E (GeneID 22843),2,-0.138,101,91.5,inactive
PPM1E (GeneID 22843),3,-0.425,67.6,50.3,inactive
PPM1E (GeneID 22843),4,0.485,32.9,46.1,inactive
GAB1 (GeneID 2549),1,-0.603,47.9,31.5,inactive
GAB1 (GeneID 2549),2,-0.0149,76.1,75.4,inactive
GAB1 (GeneID 2549),3,0.156,80.9,90.2,inactive
PKIG (GeneID 11142),1,-0.228,40.8,34.8,inactive
PKIG (GeneID 11142),2,-0.332,54.9,43.6,inactive
PKIG (GeneID 11142),3,-0.299,97.5,79.2,inactive
PKIG (GeneID 11142),4,-0.309,80.2,64.8,inactive
